Structures are written as SMILES. Where a name gives a salt, the structure may show the parent alone. The list shows a part of the results. This is a noisy data set.

For the test, the system named is Peyronie's disease tunica albuginea primary fibroblasts. Nature of the test: inhibition of TGF-beta1-induced alpha-SMA expression (myofibroblast transformation), relative to TGF-beta1-only and untreated controls; higher = stronger inhibition of myofibroblast transformation. As to conditions: 10 µM; TGF-beta1 10 ng/mL; 72 h.
As to `OCCN(CCO)c1nc(N2CCCCC2)c2nc(N(CCO)CCO)nc(N3CCCCC3)c2n1` [Dipyridamole], the “inhibition of TGF-beta1-induced alpha-SMA expression” value (shortened to “inhibition”) was 40.2%.
With `C[N+](C)(C)CC(=O)O` [Betaine] the figure was 1.44%.
Under `O=c1oc2c(O)c(O)cc3c(=O)oc4c(O)c(O)cc1c4c23` [Ellagic acid] stands -0.583%; under `CC(C)COc1ccc(CNC(=O)N(Cc2ccc(F)cc2)C2CCN(C)CC2)cc1` [Pimavanserin], over 100%.
With `O=C1NS(=O)(=O)c2ccccc21` [Saccharin] the figure was -4.74%; with `CC(=O)c1cc2c(o1)C(=O)c1ccccc1C2=O` [Napabucasin], over 100%.
In the case of `CCC(=O)O[C@@H]1CC(=O)O[C@H](C)C/C=C/C=C/[C@H](O)[C@H](C)C[C@H](CC=O)[C@H](O[C@@H]2O[C@H](C)[C@@H](O[C@H]3C[C@@](C)(O)[C@@H](OC(=O)CC)[C@H](C)O3)[C@H](N(C)C)[C@H]2O)[C@H]1OC` [Midecamycin], the “inhibition” value stood at 0.345%.
Turning to `CCN(CC)CC(=O)Nc1c(C)cccc1C` [Lidocaine], the “inhibition” value amounted to 9.45%.
With `CCN(CC)CC(=O)Nc1c(C)cccc1C` [Lidocaine hydrochloride] the figure was -4.67%; with `CC(=O)OCC(=O)[C@@]12OC(C)(C)O[C@@H]1C[C@H]1[C@@H]3C[C@H](F)C4=CC(=O)C=C[C@]4(C)[C@@]3(F)[C@@H](O)C[C@@]12C` [Fluocinonide], 42.5%; with `c1ccc2c(CC3=NCCN3)cccc2c1` [Naphazoline HCl], -13.8%.
For `CN1C(CCl)Nc2cc(Cl)c(S(N)(=O)=O)cc2S1(=O)=O` (stereo not drawn) [Methyclothiazide], the “inhibition” value was determined as 36.4%.
Under `C=CC1=C(C(=O)O)N2C(=O)[C@@H](NC(=O)/C(=N\O)c3csc(N)n3)[C@H]2SC1` [Cefdinir] stands -14.6%.
Turning to `CC(=O)NS(=O)(=O)c1ccc(N)cc1` [Sulfacetamide Sodium], the “inhibition” value was -9.54%.
Turning to `CC(=O)NS(=O)(=O)c1ccc(N)cc1` [Sulfacetamide sodium salt hydrate], the “inhibition” value is 17.9%.
On to `CC(=O)NS(=O)(=O)c1ccc(N)cc1` [Sulfacetamide], for which the “inhibition” value amounted to 15.6%.
With `Cc1cn([C@H]2C=C[C@@H](CO)O2)c(=O)[nH]c1=O` [Stavudine (d4T)] the figure was 7.49%; with `CC[C@H](C)[C@@H]1NC(=O)[C@H](Cc2ccc(O)cc2)NC(=O)[C@@H](N)CSSC[C@@H](C(=O)N2CCC[C@H]2C(=O)N[C@@H](CC(C)C)C(=O)NCC(N)=O)NC(=O)[C@H](CC(N)=O)NC(=O)[C@H](CCC(N)=O)NC1=O` [Oxytocin (Syntocinon)], 8.32%.
Under `CC(=C(CCOC(=O)C(C)C)SSC(CCOC(=O)C(C)C)=C(C)N(C=O)Cc1cnc(C)nc1N)N(C=O)Cc1cnc(C)nc1N` (stereo in doubt) [Sulbutiamine] stands 4.47%; under `CNC(=O)c1cc(Oc2ccc(NC(=O)Nc3ccc(Cl)c(C(F)(F)F)c3)cc2)ccn1` [Sorafenib], 88.6%; under `CNC(=O)c1cc(Oc2ccc(NC(=O)Nc3ccc(Cl)c(C(F)(F)F)c3)cc2)ccn1` [Sorafenib Tosylate], -17.9%.
Under `COc1cccc2c1C(=O)c1c(O)c3c(c(O)c1C2=O)C[C@@](O)(C(C)=O)C[C@@H]3O[C@H]1C[C@H](N)[C@H](O)[C@H](C)O1` [Daunorubicin HCl] stands over 100%.
In the case of `Cc1c(NC(=O)c2cccnc2)c(=O)n(-c2ccccc2)n1C` [Nifenazone], the “inhibition” value worked out at 3.62%.
Under `CS(=O)(=O)OCCCCOS(C)(=O)=O` [Busulfan] stands 33.9%.
Regarding `CC(O)Cn1cnc2c1c(=O)n(C)c(=O)n2C` (stereo not drawn) [Proxyphylline], the “inhibition” value came out at 3.22%.
As for `CO/N=C(\C(=O)N[C@@H]1C(=O)N2C(C(=O)[O-])=C(C[n+]3cccc4c3CCC4)CS[C@H]12)c1csc(N)n1` [Cefpirome sulfate], the “inhibition” value turned out to be 11.5%.
In the case of `CC(C)NC[C@@H](O)COc1ccc(CC(N)=O)cc1` [(R)-(+)-Atenolol HCl], the “inhibition” value was determined as 13.9%.
With `C[C@@H](O[C@H]1OCCN(Cc2nn(P(=O)(O)O)c(=O)[nH]2)[C@H]1c1ccc(F)cc1)c1cc(C(F)(F)F)cc(C(F)(F)F)c1` [Fosaprepitant dimeglumine salt] the figure was 15.1%.
For the molecule `CCC(C)(Oc1ccc(C2(c3ccc(OC(C)(CC)C(=O)O)cc3)CCCCC2)cc1)C(=O)O` (stereo not drawn) [Clinofibrate], the “inhibition” value was -5.13%.
In the case of `COc1cc2nccc(Oc3ccc(NC(=O)NC4CC4)c(Cl)c3)c2cc1C(N)=O` [lenvatinib Mesylate], the “inhibition” value was -46.8%.
Under `COc1cc2nccc(Oc3ccc(NC(=O)NC4CC4)c(Cl)c3)c2cc1C(N)=O` [Lenvatinib (E7080)] stands -186%; under `CC(C)(CO)c1cc2cc(NC(=O)C3(c4ccc5c(c4)OC(F)(F)O5)CC3)c(F)cc2n1C[C@@H](O)CO` [Tezacaftor(VX-661)], 32.3%.
With `CC[C@@H]1C(=O)OC[C@@H]1Cc1cncn1C` [Pilocarpine HCl], the “inhibition” value was 24.4%.
With `O=c1c(-n2ccnn2)c[nH]n1-c1cc(N2CCOCC2)ncn1` [Molidustat (BAY 85-3934)] the figure was 86.6%; with `Cn1cnc2c(F)c(Nc3ccc(Br)cc3F)c(C(=O)NOCCO)cc21`, -95.3%; with `NC(=O)c1cnccn1` [Pyrazinamide], 40.1%.
For `CO[C@@H]1[C@H](OC(=O)/C=C/C=C/C=C/C=C/C(=O)O)CC[C@]2(CO2)[C@H]1[C@@]1(C)O[C@@H]1CC=C(C)C` [Fumagillin], the “inhibition” value is 12.4%.
With `O=C(CCNNC(=O)c1ccncc1)NCc1ccccc1` [Nialamide] the figure was 7.69%; with `CSc1nc2cc(Cl)c(Oc3cccc(Cl)c3Cl)cc2[nH]1` [Triclabendazole], -20.5%; with `Cc1ccccc1N1CCN(CCc2nnc3n2CCCC3)CC1` [Dapiprazole Hydrochloride], -22.3%.
Turning to `O=C1[C@@H]2[C@H]3CC[C@H](C3)[C@@H]2C(=O)N1C[C@@H]1CCCC[C@H]1CN1CCN(c2nsc3ccccc23)CC1` [lurasidone], the “inhibition” value amounted to 11.4%.
With `CCCCC[C@H](O)/C=C/[C@H]1[C@H](O)CC(=O)[C@@H]1C/C=C\CCCC(=O)O` [Prostaglandin E2 (PGE2)] the figure was 40.6%.
Turning to `COc1cccc2c1C(=O)c1c(O)c3c(c(O)c1C2=O)C[C@@](O)(C(=O)CO)C[C@@H]3O[C@H]1C[C@H](N)[C@@H](O)[C@H](C)O1` [Epirubicin HCl], the “inhibition” value was over 100%.
In the case of `CCCN(CCC)CCc1cccc2c1CC(=O)N2` [Ropinirole HCl], the “inhibition” value came to 19.2%.
Under `O[C@H]1[C@H](O)[C@@H](O)[C@H](O)[C@@H](O)[C@H]1O` [i-Inositol] stands -18.6%; under `CC(=O)O[C@H]1C(=O)[C@@]2(C)[C@H]([C@H](OC(=O)c3ccccc3)[C@]3(O)C[C@H](OC(=O)[C@H](O)[C@@H](NC(=O)c4ccccc4)c4ccccc4)C(C)=C1C3(C)C)[C@]1(OC(C)=O)CO[C@@H]1C[C@@H]2O` [Paclitaxel], 86.5%; under `Cc1[nH]c(=O)c(C#N)cc1-c1ccc2nccn2c1` [Olprinone], 18.9%.
Under `COc1c(-c2ccc3cc(NS(C)(=O)=O)ccc3c2)cc(-n2ccc(=O)[nH]c2=O)cc1C(C)(C)C` [Dasabuvir(ABT-333)] stands 35.3%.
Regarding `O=C([O-])[C@H](O)[C@@H](O)[C@H](O)[C@H](O)CO.O=C([O-])[C@H](O)[C@@H](O)[C@H](O)[C@H](O)CO.[Ca+2]` [Calcium gluconate], the “inhibition” value worked out at 13.4%.
As to `CC1=C(/C=C/C(C)=C/C=C/C(C)=C/CO)C(C)(C)CCC1` [Vitamin A], the “inhibition” value was found to be 33.4%.
Under `Cc1ncc([N+](=O)[O-])n1CC(C)O` (stereo not drawn) [Secnidazole] stands 12%; under `O=C(O)c1ccccc1OP(=O)(O)O` [Fosfosal], 14.8%; under `COc1ccc2cc([C@H](C)C(=O)O)ccc2c1` [Naproxen Sodium], 17.5%.
Under `C[C@]12CCC(=O)C=C1[C@@H]1C[C@@H]1[C@H]1[C@@H]3[C@@H]4C[C@@H]4[C@@]4(CCC(=O)O4)[C@@]3(C)CC[C@@H]12` [Drospirenone] stands -5.96%; under `CC1(C)S[C@@H]2[C@H](NC(=O)[C@H](N)c3ccccc3)C(=O)N2[C@H]1C(=O)O` [Ampicillin Trihydrate], -21.2%; under `CC1(C)S[C@@H]2[C@H](NC(=O)[C@H](N)c3ccccc3)C(=O)N2[C@H]1C(=O)O` [Ampicillin sodium], 6.06%.
Consider `O=C(O)c1cc(=O)[nH]c(=O)[nH]1` [Orotic acid (6-Carboxyuracil)], for which the “inhibition” value is 7.04%.
Consider `O=c1n(CCCN2CCN(c3cccc(Cl)c3)CC2)nc2ccccn12` [Trazodone HCl], for which the “inhibition” value was 26.9%.
With `Cc1ccc(-n2nc(C(C)(C)C)cc2NC(=O)NCc2cc(F)ccc2Oc2ccc3c(cnn3CCO)c2)cc1` [Pexmetinib (ARRY-614)] the figure was 60.4%.
Regarding `O=C(NC[C@H](O)CO)c1ccncc1Nc1ccc(I)cc1F`, the “inhibition” value is -170%.
With `CCOC(=O)[C@H](CCc1ccccc1)N[C@@H](C)C(=O)N1C(=O)N(C)C[C@H]1C(=O)O` [Imidapril HCl] the figure was -8.01%.
As for `C[C@@H]1C[C@H]2[C@@H]3CCC4=CC(=O)C=C[C@]4(C)[C@@]3(Cl)[C@@H](O)C[C@]2(C)[C@@]1(OC(=O)c1ccco1)C(=O)CCl` [Mometasone furoate], the “inhibition” value turned out to be 73%.
For the molecule `C[C@]12CCC3=C4CCC(=O)C=C4CC[C@H]3[C@@H]1CC[C@@]2(O)CC#N` [Dienogest], the “inhibition” value turned out to be 21.9%.
For the molecule `O=c1oc2cc(O)ccc2s1` [Tioxolone], the “inhibition” value is -15.4%.
`O=C(O)c1ccccc1O` [Salicylic acid]: the “inhibition” value stood at 25.3%.
Consider `C/C(=C\C(=O)OCCCCCCCCC(=O)O)C[C@@H]1OC[C@H](C[C@@H]2O[C@H]2[C@@H](C)[C@H](C)O)[C@@H](O)[C@H]1O` [Mupirocin], for which the “inhibition” value amounted to 14.9%.
With `C/C(=C\C(=O)OCCCCCCCCC(=O)O)C[C@@H]1OC[C@H](C[C@@H]2O[C@H]2[C@@H](C)[C@H](C)O)[C@@H](O)[C@H]1O` [Mupirocin calcium] the figure was 22.7%; with `N/N=c1\[nH][nH]/c(=N\N)c2ccccc12` [Dihydralazine sulphate], -30.7%.

For the origin of these results see the supplement of paper PMC9744312.
